Laboratory results from the supplement of paper PMC10849652.
Some of the results follow.

Sequences of proteins named here, by UniProt entry; tags and fusion partners are left off. A change or cut given only in a name is not applied to a line headed by its entry.
UniProt P58012: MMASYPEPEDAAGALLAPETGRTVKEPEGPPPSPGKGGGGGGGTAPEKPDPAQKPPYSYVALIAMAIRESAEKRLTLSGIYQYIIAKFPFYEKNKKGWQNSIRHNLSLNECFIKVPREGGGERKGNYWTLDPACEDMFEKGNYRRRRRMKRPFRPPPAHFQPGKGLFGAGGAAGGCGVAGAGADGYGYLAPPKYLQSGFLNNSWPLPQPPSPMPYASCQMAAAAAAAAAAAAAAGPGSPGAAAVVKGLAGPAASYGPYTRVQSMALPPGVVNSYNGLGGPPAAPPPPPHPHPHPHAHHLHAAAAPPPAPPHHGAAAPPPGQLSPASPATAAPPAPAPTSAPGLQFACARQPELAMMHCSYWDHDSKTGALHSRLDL
UniProt Q9NXC2: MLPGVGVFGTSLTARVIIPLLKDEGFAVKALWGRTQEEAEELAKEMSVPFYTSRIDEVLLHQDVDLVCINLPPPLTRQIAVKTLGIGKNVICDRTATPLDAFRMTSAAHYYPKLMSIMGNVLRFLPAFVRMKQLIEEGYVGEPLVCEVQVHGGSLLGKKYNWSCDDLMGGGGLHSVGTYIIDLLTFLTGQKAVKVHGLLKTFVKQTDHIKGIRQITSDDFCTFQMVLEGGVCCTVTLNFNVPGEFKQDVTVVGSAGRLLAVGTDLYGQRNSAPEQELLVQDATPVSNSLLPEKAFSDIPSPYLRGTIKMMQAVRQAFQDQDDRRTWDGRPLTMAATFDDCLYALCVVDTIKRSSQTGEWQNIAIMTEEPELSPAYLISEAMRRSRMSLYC
UniProt Q9HCG7: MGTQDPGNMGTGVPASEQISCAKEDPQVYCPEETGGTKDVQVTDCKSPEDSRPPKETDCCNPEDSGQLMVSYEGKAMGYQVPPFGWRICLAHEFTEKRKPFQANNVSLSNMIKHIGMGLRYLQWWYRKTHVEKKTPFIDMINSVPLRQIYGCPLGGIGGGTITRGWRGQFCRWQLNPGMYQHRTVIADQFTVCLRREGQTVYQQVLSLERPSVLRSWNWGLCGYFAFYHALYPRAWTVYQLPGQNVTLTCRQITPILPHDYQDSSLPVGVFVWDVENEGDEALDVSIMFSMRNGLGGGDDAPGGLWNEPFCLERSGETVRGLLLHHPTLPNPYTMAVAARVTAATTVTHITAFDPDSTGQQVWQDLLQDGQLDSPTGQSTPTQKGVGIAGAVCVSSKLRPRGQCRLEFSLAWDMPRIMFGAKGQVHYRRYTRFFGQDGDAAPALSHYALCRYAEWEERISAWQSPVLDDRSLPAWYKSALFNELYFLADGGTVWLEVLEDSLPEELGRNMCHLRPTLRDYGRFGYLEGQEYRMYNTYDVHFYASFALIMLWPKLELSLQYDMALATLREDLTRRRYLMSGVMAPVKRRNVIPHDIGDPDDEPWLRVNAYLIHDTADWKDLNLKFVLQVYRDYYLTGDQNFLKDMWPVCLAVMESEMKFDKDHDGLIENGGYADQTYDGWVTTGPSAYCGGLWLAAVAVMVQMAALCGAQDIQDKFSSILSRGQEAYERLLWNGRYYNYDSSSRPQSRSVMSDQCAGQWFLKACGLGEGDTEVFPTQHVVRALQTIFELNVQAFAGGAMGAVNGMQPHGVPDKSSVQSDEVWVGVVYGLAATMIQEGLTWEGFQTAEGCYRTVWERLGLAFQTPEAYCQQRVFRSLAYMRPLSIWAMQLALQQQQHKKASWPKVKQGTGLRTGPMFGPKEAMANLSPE
UniProt P27469: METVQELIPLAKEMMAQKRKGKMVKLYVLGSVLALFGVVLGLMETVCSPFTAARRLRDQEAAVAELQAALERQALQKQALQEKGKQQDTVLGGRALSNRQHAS
UniProt P24522: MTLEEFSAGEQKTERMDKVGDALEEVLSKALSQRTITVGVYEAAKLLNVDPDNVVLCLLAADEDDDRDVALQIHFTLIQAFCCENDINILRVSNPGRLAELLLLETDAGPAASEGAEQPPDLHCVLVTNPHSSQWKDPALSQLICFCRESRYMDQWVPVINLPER
UniProt Q8TAK5: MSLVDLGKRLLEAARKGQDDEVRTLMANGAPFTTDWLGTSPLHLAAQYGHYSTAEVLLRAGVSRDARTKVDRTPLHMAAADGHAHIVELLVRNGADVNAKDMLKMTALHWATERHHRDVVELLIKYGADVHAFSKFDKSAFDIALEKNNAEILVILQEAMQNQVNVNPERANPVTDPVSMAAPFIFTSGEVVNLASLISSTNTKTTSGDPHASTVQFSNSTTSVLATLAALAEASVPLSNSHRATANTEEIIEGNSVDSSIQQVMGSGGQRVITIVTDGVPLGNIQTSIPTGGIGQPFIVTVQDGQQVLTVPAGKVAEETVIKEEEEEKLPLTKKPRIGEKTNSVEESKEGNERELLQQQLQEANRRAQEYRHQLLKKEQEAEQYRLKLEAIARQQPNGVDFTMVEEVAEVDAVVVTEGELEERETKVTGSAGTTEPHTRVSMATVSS
UniProt P28676: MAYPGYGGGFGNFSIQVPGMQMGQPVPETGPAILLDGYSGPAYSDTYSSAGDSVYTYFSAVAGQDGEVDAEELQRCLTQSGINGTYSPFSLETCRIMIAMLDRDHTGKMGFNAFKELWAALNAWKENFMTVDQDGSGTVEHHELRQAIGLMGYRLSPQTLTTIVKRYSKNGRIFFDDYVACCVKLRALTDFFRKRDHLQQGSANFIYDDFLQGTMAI
UniProt Q8TET4: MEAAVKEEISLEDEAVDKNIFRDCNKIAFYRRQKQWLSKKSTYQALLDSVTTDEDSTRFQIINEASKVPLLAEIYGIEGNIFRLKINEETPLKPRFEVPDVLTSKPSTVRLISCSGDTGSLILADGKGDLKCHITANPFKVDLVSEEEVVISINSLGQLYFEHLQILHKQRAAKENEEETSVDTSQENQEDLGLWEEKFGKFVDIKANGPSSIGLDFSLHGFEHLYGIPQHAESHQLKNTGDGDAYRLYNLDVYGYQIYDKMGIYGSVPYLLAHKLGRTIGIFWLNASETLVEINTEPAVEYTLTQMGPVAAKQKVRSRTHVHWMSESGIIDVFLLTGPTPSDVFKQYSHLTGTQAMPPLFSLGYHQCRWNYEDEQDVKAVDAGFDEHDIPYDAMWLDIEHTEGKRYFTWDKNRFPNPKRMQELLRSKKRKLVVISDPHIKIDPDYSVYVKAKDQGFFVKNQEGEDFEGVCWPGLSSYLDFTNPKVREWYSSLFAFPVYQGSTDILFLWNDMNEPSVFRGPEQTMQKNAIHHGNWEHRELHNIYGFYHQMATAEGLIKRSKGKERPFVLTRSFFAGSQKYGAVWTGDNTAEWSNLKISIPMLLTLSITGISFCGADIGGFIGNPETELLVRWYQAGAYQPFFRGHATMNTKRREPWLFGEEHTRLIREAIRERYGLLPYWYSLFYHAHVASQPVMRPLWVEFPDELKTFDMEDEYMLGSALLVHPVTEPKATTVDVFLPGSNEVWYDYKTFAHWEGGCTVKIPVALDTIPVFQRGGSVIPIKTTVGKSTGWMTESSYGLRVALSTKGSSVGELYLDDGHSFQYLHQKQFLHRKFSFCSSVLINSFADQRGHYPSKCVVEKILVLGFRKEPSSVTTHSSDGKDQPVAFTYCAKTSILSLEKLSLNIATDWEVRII
UniProt Q14C86: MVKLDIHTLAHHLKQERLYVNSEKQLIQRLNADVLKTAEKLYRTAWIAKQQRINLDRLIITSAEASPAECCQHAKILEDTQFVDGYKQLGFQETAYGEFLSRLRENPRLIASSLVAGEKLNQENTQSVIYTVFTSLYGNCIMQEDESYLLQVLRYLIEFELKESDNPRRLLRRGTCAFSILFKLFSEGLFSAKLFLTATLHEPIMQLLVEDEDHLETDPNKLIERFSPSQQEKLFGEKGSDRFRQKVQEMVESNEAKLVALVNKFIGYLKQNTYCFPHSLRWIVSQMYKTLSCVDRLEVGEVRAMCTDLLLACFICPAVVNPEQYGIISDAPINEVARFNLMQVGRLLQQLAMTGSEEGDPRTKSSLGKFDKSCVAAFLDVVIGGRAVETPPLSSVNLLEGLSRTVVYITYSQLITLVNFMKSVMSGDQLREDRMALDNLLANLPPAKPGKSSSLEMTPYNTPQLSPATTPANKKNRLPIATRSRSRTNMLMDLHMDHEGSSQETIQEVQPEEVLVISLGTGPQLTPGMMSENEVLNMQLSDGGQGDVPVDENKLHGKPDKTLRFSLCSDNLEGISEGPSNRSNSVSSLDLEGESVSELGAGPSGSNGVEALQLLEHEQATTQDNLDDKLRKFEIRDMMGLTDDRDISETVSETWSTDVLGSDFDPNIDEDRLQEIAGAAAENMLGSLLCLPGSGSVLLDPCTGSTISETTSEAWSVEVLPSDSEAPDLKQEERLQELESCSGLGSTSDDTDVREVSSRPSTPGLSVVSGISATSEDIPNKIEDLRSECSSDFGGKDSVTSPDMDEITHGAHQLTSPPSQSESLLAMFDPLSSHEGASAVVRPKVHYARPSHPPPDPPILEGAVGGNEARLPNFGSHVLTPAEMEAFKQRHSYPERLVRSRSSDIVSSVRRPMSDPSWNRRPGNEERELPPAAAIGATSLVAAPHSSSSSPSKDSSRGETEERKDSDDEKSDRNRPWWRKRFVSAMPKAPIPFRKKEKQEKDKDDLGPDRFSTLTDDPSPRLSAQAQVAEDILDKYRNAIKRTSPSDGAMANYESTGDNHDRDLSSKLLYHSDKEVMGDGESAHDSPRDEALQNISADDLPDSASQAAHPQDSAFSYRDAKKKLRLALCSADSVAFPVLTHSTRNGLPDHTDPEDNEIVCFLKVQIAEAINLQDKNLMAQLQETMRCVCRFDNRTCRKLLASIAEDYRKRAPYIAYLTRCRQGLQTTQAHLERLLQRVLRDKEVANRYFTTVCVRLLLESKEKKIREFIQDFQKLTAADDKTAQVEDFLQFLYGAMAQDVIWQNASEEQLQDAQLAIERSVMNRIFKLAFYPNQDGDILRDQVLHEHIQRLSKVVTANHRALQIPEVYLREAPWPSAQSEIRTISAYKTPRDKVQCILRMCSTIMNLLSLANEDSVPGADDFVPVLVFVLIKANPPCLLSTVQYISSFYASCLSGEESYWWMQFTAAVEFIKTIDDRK
UniProt Q14393: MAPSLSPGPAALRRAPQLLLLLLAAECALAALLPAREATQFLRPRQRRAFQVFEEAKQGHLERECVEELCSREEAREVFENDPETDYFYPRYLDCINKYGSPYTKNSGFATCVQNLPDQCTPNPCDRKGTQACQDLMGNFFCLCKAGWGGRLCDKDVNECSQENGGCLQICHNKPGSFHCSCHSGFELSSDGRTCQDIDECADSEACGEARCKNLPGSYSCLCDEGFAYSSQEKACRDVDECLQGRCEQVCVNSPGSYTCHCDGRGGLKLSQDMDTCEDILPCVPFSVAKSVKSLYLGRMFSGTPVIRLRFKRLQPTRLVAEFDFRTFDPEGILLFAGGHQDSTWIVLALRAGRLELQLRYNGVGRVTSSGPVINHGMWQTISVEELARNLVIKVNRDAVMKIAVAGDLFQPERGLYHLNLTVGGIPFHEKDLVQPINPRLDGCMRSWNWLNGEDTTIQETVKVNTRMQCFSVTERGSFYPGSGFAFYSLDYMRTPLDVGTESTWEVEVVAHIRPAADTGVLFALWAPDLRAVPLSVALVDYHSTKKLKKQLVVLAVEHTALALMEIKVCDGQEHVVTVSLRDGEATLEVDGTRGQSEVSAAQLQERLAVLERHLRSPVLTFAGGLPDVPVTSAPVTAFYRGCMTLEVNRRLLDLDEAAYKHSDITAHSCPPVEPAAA
UniProt P15976: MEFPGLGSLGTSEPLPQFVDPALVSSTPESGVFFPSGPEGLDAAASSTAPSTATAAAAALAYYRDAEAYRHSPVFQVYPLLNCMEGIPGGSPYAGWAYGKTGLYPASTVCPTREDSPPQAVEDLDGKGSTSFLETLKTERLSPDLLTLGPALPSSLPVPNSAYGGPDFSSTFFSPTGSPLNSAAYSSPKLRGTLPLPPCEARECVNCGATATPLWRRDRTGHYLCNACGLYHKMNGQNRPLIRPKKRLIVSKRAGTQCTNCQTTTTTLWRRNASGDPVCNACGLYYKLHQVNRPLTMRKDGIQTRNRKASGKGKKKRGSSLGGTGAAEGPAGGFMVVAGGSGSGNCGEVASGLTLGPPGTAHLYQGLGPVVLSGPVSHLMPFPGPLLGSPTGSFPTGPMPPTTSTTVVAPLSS
UniProt P50440: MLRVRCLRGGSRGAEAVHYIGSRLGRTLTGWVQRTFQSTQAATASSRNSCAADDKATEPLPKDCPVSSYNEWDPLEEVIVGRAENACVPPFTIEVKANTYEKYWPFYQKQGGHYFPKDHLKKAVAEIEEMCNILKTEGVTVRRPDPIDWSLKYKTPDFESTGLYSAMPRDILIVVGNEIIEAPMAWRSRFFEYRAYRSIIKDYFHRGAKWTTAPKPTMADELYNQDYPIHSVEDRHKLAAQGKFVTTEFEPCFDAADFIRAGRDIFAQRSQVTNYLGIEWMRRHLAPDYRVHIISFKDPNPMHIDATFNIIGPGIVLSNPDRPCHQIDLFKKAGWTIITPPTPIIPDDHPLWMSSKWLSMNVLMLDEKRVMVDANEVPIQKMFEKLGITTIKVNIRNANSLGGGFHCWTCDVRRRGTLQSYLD

Experiments:
Test in all cases: log2 fold change, soluble protein after heating vs DMSO (PISA); higher = thermal stabilisation; K562 lysate, 10 uM; active = over 0.2 and 3.5 SD of the protein, either way, in both replicates (recomputed)
[1] = compound: CCn1c(C(=O)N(C2CC2)C2CC2)cc2c3c(ncn3C)c(Nc3cc(C)n(C)n3)nc21
How it was run: (§1)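 Thermal stability, expressed as log-two fold change relative to solvent controls, is given from duplicates. Crude K562 extract in PBS pH 7.4 with 1 mM MgCl2, at 1 mg/mL protein, was treated with 10 μM compound for 30 min and heated in aliquots for 3 min across 48°C-58°C. After pooling, adjustment to 0.5% NP-40 at 4°C and centrifugation at 21,000xg for 90 min, supernatant protein was measured by TMTpro 16plex LC-MS/MS with channel sums equalised.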

[2] = compound: CCn1cc(-c2ccnc3[nH]c(-c4cccc(CN(C)C)c4)cc23)c(-c2ccc(NC(=O)N(C)C)cc2)n1
How it was run: as §1

[3] = compound: CN1CCC(CNc2ccc3ncc(-c4cccc(OC(F)(F)F)c4)n3n2)CC1
How it was run: as §1

sotrastaurin = compound: CN1CCN(c2nc(C3=C(c4c[nH]c5ccccc45)C(=O)NC3=O)c3ccccc3n2)CC1 [sotrastaurin]
How it was run: as §1

[4] = compound: CCCS(=O)(=O)Nc1ccc(F)c(C(=O)c2c[nH]c3ncc(Cl)cc23)c1F
How it was run: as §1

volasertib = compound: CC[C@@H]1C(=O)N(C)c2cnc(Nc3ccc(C(=O)N[C@H]4CC[C@H](N5CCN(CC6CC6)CC5)CC4)cc3OC)nc2N1C(C)C [volasertib]
How it was run: as §1

saracatinib = compound: CN1CCN(CCOc2cc(OC3CCOCC3)c3c(Nc4c(Cl)ccc5c4OCO5)ncnc3c2)CC1 [saracatinib]
How it was run: as §1

barasertib = compound: CCN(CCCOc1ccc2c(Nc3cc(CC(=O)Nc4cccc(F)c4)[nH]n3)ncnc2c1)CCOP(=O)(O)O [barasertib]
How it was run: as §1

[5] = compound: CC[C@@H]1C(=O)N(C)c2cnc(Nc3ccc(C(=O)NC4CCN(C)CC4)cc3OC)nc2N1C1CCCC1
How it was run: as §1

Target	log2 fold change [1]	log2 fold change [2]	log2 fold change [3]	log2 fold change (sotrastaurin)	log2 fold change [4]	log2 fold change (volasertib)	log2 fold change (saracatinib)	log2 fold change (barasertib)	log2 fold change [5]
FZD1 (UniProt Q9UP38)	inactive: 0.081	inactive: -0.025	inactive: 0.098	inactive: -0.116					
G3BP2 isoform 2 (UniProt Q9UN86)		inactive: 0.156	inactive: -0.032	inactive: 0.02	inactive: 0.119	inactive: -0.097	inactive: 0.017		
FOXO4 (UniProt P98177)		inactive: 0.093	inactive: 0.22					inactive: 0.063	
FOXL2 (UniProt P58012)	inactive: 0.174				inactive: 0.026	inactive: 0.046	inactive: -0.038	inactive: 0.051	inactive: 0.01
GFOD1 (UniProt Q9NXC2)	inactive: 0.087				inactive: 0.07	inactive: -0.015			
GAGE1 (UniProt Q13065)	inactive: -0.037				inactive: -0.121	inactive: -0.036		inactive: 0.073	inactive: -0.14
GBA2 (UniProt Q9HCG7)	inactive: 0	inactive: -0.076	inactive: 0.025	inactive: 0.001	inactive: 0.12	inactive: -0.21	inactive: 0.033	inactive: -0.01	inactive: 0.099
G0S2 (UniProt P27469)				inactive: 0.066					inactive: -0.199
GEMIN7 (UniProt Q9H840)	inactive: -0.092	inactive: -0.159	inactive: 0.064	inactive: -0.097				inactive: 0.304	
GADD45A (UniProt P24522)	inactive: 0.208	inactive: -0.032	inactive: -0.073	inactive: 0.058					
GARS1 (UniProt H7C443)					inactive: 0.012	inactive: 0.008		inactive: 0.063	
GABPB2 (UniProt Q8TAK5)	inactive: 0.005	inactive: 0.195	inactive: -0.022	inactive: 0.03			inactive: -0.106	inactive: 0.094	inactive: -0.177
FSIP2 (UniProt Q5CZC0)	inactive: -0.154	inactive: -0.442	inactive: 0.111	inactive: 0.049	inactive: -0.005	inactive: -0.011	inactive: 0.096		
GCA (UniProt P28676)		inactive: -0.139	inactive: 0.168		inactive: 0.124	inactive: -0.048			
GANC (UniProt Q8TET4)	inactive: 0.021			inactive: 0.037	inactive: -0.097	inactive: -0.068	inactive: -0.089		inactive: -0.016
GAPVD1 (UniProt Q14C86)					inactive: 0.116	inactive: -0.305		inactive: 0.078	
GAS6 isoform 1 (UniProt Q14393)		inactive: -0.096	inactive: 0.188	inactive: 0.076	inactive: -0.135	inactive: -0.082		inactive: -0.011	inactive: -0.315
FUS (UniProt H3BPE7)							inactive: -0.108		
FUT1 (UniProt P19526)		inactive: -0.032	inactive: 0.093	inactive: 0.03					
GATA1 (UniProt P15976)	inactive: 0.04	inactive: 0.121	inactive: -0.128	inactive: -0.03	inactive: 0.052	inactive: -0.028	inactive: 0.072	inactive: 0.135	
FUT4 (UniProt P22083)		inactive: -0.151	inactive: 0.162	inactive: -0.035			inactive: 0.064		inactive: 0.03
GATM (UniProt P50440)									inactive: 0.351
GFI1B (UniProt Q5VTD9)	inactive: -0.07			inactive: 0.282	inactive: -0.259	inactive: 0.124	inactive: 0.038		
GDE1 (UniProt Q9NZC3)	inactive: 0.005	active: 1.04	active: -0.455	inactive: -0.064	inactive: 0.038	inactive: 0.092	inactive: 0.035	inactive: 0.108	inactive: 0.107

Fetched one by one from the list above:
Target	log2 fold change [1]	log2 fold change [2]	log2 fold change [3]	log2 fold change (sotrastaurin)	log2 fold change [4]	log2 fold change (volasertib)	log2 fold change (saracatinib)	log2 fold change (barasertib)	log2 fold change [5]
GCA (UniProt P28676)		inactive: -0.139	inactive: 0.168		inactive: 0.124	inactive: -0.048			
GBA2 (UniProt Q9HCG7)	inactive: 0	inactive: -0.076	inactive: 0.025	inactive: 0.001	inactive: 0.12	inactive: -0.21	inactive: 0.033	inactive: -0.01	inactive: 0.099
